Measurements from paper doi:10.1101/2022.11.14.515780.
Where a chain is given by its changes, count along the chain named. Where two headings read alike, the source gives them in different places. Results are given in words; binding and its absence hold for the method and conditions named. In cells and extracts the contact can be indirect. For some of these results: A result given as binding can be weak or reduced; the word gives no strength. Where a sequence is shown, tags or fusion partners need not be part of it. Values belong to the binder of their own block, whether it stands above or below them.

Assays:
Experiment in all cases: co-IP
[1] = target: RFP-Fbp17 (Dictyostelium discoideum) (UniProt Q55AN3)
[2] = target: RFP-Fbp17 (Dictyostelium discoideum) (UniProt Q55AN3); remark: listed apart in the source
[3] = target: RFP-Fbp17^ΔSH3 (Dictyostelium discoideum)

binding [2]: binds
B2: GxcM^4A-GFP (protein, UniProt Q1ZXN6 1-1145)
chain: MKIKFFRYVLTIDEQSEENKKEVAIDQQVVNDTNSDISSNRDSLNIEDEQQKESSSSLSSSSNNTTTTTATTTSPTTTATTTTTTATTSTTDESETTNSTTPTSATSTPDSMITPTKSKGSSNKLNSKEDKNLKKQKQKEEKERLEMEKQKQKEEKEQKIKDEKERLEMEKQKQKEEKEQKIKDEKERLEMEKQKQKEEKEKLKEEKEKSKREQKEKEKEKEDITEQKDKDSTPTKVQLTREPSVISKIFSVKKSNSLIIERSTSPVQIDSSPSKSFIESNNNNNSSSNNLANNTTDRNSISSEDANIIQNNTTDSNIENNETTNNNNNSNGSRTSTPTPINSEGIEKSISSSDLSNITTTTTTTGSGGLNTSPSTENINVGGGTDSGTTTTTTNNNNNNSTNNLVGDKTELSSGSSVISSPNGGTKREVVIKVTRAFAQVIHQNVMKEEGENKMRNMVINEIINTEKDYIADLNIIVNFILTPLKESKIIPDKDISIIFSNIQLLLNVNKELLSDLLQKAPDEKPNHTVGTCFIYFFKYLKIYSGYCANQTISADHIARCSKKIPSFKQFLEEKQASTECRQCNLESFLIKAAAALCKYPLLLRELIKNSCEGHPDLANLEKAYTEIQEVVLSVNESKRKAEIHQKMYKIHEKLQAPEKFVFFTPTRYLIREATFGELTEEKDKISGRMHYYLFNDIIMRTQKDKKSIRLETLFIIASTNVDGEENRGSSFCNTFEISQPGTTGRRFTLVADSYEQKMEWFTDLDELIKPHREEYSRNADKVLDHIKRSTIATTNPSSNGISSDSPKSLHRTQTAAGALQQQQQQSKPVHAIPSKPLPPPPPKSKSSATITPTTTTTNTTVVIDEPPTIVDSASTPLPSQTPIAKPRPTSTIKKTFITNSNQTSSPQQQQPATTEQAPPIPSRQQRPLSVTPTTTPTPSQPVITQQNENNNTVPTKTTRPLPKPGSFTAPAPVSTLINNNNTSNSSTTTTTTTTTNQPAKPIAFPSKLSNLKQAAPNNSARSASTFVPSTSHSSFVPSSVKNNTNNNNITKDDLSLPSSANNNNNNSNTDFTTPPTGKPRVMPLPPRGGSAVNVAVNNNNNINNNSPVPFPPTTNTTTPTATPPHSPQTSDLNLTKKPIIPPRK

binding [2]: no binding
B3: GxcM^N790-GFP (domain or fragment, UniProt Q1ZXN6 1-790)
chain: MKIKFFRYVLTIDEQSEENKKEVAIDQQVVNDTNSDISSNRDSLNIEDEQQKESSSSLSSSSNNTTTTTATTTSPTTTATTTTTTATTSTTDESETTNSTTPTSATSTPDSMITPTKSKGSSNKLNSKEDKNLKKQKQKEEKERLEMEKQKQKEEKEQKIKDEKERLEMEKQKQKEEKEQKIKDEKERLEMEKQKQKEEKEKLKEEKEKSKREQKEKEKEKEDITEQKDKDSTPTKVQLTREPSVISKIFSVKKSNSLIIERSTSPVQIDSSPSKSFIESNNNNNSSSNNLANNTTDRNSISSEDANIIQNNTTDSNIENNETTNNNNNSNGSRTSTPTPINSEGIEKSISSSDLSNITTTTTTTGSGGLNTSPSTENINVGGGTDSGTTTTTTNNNNNNSTNNLVGDKTELSSGSSVISSPNGGTKREVVIKVTRAFAQVIHQNVMKEEGENKMRNMVINEIINTEKDYIADLNIIVNFILTPLKESKIIPDKDISIIFSNIQLLLNVNKELLSDLLQKAPDEKPNHTVGTCFIYFFKYLKIYSGYCANQTISADHIARCSKKIPSFKQFLEEKQASTECRQCNLESFLIKPVQRLCKYPLLLRELIKNSCEGHPDLANLEKAYTEIQEVVLSVNESKRKAEIHQKMYKIHEKLQAPEKFVFFTPTRYLIREATFGELTEEKDKISGRMHYYLFNDIIMRTQKDKKSIRLETLFIIASTNVDGEENRGSSFCNTFEISQPGTTGRRFTLVADSYEQKMEWFTDLDELIKPHREEYSRNADKVLDHIKRS

More lines, now with the values behind:

B1: GxcM-GFP (protein, UniProt Q1ZXN6 1-1145)
chain: B2 chain with A593P, A594V, A595Q, A596R
binding [1]: binds
binding [2]: binds
binding [3]: no binding

B4: GFP-WASP (protein, UniProt Q9GSG9 1-399)
chain: MGSPTISDQEKSQVAFIAGSSSDIHSTTVARLYEGRQGRWEFMAVGIVSVVSNRVDKTNYIKVFDLKANYRIIFEQEIYDTFEFQKQRDFFFAFEGDSCVYGLSFADVTEAAEFYGQLLNCKQGNIGKTAAINPNTSSTKITASTPAPKVEKKKEKKGFMSKFFSSEEKDLEISAPTNFKHESHIGWDPENGFDIKNIPPDWRKLFQSAGIKKSELKNAETAQFIVNIIGEQMVGGSAPPPTQPGRSAPPAPPSSNQPGRSAPPPPPSVGKSAPPPPPPSHKTPAAPPSGGGAPPPPPPPPPPSSGPPPPPPPMASAPPSSGGGGASGGGRNDLLASIRSGASLKAVDKTNPLPDIQSLGNEGSRSLADTLAAAMANRRGGMREDDEEDDDDDDEWSDY
binding [2]: binds
binding [3]: no binding
